This is an account of results in article PMC10511561.

Sequences of proteins named here, by UniProt entry; tags and fusion partners are left off.
UniProt Q08032: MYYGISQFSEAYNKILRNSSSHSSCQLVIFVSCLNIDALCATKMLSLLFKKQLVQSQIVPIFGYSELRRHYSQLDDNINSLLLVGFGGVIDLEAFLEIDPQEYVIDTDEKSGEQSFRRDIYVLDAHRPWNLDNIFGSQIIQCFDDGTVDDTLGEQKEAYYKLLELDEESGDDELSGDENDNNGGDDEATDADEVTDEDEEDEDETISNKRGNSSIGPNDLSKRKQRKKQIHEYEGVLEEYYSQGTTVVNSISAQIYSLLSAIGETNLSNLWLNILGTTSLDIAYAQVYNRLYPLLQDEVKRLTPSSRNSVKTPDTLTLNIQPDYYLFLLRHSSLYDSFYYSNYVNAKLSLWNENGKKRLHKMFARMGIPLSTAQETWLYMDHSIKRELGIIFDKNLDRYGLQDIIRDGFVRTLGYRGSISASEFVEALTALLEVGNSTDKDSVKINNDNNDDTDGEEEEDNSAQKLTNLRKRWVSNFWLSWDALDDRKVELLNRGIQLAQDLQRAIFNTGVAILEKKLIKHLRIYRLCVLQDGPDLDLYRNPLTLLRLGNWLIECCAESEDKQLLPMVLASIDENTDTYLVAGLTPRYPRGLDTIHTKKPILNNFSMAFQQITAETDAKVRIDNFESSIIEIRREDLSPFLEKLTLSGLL

In assay [1] the target is T1, Psf2-Flag (yeast) (UniProt P40359).
T1 sequence: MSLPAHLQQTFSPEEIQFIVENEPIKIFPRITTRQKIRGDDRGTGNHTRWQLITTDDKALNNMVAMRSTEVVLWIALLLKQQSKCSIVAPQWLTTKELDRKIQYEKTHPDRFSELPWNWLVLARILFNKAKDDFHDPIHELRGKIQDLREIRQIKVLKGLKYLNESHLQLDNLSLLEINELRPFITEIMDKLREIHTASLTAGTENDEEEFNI
The experiment in a line: co-IP; Flag IP (anti-FLAG M2 gel) of Psf2-Flag from Benzonase-treated lysates of pol2-iAID cells with POL2-WT or pol2ΔDS2 after depletion of Pol2-AID; early S phase cells, 30 min after release from G1 arrest; blots for Flag, Cdc45, Mcm2.

The target of assay [2] is T1, Psf2-Flag (yeast). In words: condition: only G1-arrested cells (before release into S phase); co-IP; Flag IP (anti-FLAG M2 gel) of Psf2-Flag from Benzonase-treated lysates of POL2-WT pol2-iAID cells after depletion of Pol2-AID; G1-arrested cells (before release); blots for Flag, Cdc45, Mcm2.

No constants are given. Whether binding was seen depends on the method and setting. In cells and extracts the contact can be indirect. Some entries that bind do so weakly or less than the wild type. Sequences can lack the tags named with a protein.

Regarding “Cdc45 (in yeast lysate) (from UniProt Q08032 1-650)”, the binding result with Psf2-Flag (yeast) [1] is listed as “binds”; in the assay with Psf2-Flag (yeast) [2], “no binding”.
